In the supplement of paper PMC10849652:
Some of the results follow.

By UniProt entry, the sequences of proteins in these tests, tags left out. Where a name states a change or a piece, a line headed by the entry shows the natural chain unless it says otherwise.
UniProt Q9NWA0: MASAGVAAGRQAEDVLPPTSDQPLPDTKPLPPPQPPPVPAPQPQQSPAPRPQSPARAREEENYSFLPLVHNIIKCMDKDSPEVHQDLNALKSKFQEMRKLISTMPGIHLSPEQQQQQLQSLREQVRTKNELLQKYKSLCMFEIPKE
UniProt Q9P086: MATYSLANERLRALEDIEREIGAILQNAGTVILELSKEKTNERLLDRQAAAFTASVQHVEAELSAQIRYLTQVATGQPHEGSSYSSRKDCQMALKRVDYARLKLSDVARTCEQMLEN
UniProt Q06413, whole entry, looked up: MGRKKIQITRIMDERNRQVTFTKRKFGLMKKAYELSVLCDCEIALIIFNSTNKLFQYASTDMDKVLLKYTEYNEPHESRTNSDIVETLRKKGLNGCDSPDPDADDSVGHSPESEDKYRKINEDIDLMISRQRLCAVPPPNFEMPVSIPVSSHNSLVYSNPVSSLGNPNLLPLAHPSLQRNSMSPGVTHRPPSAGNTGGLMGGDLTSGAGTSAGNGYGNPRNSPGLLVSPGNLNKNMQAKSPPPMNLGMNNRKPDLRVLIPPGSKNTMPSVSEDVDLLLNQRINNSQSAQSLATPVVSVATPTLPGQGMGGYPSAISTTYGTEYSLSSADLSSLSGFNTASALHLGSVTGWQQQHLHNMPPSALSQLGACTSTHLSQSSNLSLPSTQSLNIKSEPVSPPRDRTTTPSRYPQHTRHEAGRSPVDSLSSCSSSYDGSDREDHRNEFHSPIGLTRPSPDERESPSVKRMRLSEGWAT
UniProt Q8IX19: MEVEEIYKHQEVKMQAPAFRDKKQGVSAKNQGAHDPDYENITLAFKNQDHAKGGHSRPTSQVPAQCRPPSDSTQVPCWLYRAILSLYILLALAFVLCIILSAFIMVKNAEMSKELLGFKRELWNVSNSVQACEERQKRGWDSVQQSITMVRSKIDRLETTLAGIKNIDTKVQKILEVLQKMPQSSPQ
UniProt O43462: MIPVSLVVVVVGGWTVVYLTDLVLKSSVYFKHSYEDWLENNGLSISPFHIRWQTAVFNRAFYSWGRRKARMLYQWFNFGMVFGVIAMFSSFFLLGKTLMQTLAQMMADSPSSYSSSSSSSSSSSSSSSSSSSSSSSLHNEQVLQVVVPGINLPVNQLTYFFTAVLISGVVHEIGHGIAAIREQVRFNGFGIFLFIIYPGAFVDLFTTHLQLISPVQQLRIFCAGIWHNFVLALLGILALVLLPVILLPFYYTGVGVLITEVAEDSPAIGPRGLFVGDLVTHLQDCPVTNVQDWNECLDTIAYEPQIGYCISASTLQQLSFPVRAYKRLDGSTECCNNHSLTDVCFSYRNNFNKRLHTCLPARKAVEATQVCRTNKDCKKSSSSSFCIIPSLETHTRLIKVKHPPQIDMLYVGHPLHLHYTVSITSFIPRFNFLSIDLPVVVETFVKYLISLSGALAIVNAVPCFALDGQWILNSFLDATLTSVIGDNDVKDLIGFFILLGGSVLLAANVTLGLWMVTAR
UniProt Q6NUT3: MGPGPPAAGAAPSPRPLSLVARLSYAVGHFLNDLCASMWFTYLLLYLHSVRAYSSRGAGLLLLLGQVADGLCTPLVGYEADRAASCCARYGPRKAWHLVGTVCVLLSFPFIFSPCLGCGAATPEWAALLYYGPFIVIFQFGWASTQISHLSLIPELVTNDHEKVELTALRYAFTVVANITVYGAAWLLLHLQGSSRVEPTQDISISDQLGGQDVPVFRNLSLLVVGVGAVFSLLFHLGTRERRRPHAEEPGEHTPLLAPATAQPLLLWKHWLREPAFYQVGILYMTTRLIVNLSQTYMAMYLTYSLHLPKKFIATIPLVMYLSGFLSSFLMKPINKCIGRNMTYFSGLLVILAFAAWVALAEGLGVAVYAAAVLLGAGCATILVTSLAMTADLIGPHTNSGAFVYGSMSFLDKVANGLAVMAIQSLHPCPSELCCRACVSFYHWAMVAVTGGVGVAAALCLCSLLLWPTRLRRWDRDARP
UniProt P55082: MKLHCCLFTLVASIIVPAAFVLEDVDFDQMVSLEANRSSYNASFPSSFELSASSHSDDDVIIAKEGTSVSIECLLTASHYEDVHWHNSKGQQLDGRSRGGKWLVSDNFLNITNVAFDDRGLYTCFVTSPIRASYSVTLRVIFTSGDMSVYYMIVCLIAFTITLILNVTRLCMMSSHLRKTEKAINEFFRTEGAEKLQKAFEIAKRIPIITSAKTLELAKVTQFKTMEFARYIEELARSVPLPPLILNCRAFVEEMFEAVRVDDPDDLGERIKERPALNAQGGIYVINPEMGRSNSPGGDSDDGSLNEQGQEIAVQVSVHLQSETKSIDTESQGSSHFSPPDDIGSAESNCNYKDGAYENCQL
UniProt Q8TC05: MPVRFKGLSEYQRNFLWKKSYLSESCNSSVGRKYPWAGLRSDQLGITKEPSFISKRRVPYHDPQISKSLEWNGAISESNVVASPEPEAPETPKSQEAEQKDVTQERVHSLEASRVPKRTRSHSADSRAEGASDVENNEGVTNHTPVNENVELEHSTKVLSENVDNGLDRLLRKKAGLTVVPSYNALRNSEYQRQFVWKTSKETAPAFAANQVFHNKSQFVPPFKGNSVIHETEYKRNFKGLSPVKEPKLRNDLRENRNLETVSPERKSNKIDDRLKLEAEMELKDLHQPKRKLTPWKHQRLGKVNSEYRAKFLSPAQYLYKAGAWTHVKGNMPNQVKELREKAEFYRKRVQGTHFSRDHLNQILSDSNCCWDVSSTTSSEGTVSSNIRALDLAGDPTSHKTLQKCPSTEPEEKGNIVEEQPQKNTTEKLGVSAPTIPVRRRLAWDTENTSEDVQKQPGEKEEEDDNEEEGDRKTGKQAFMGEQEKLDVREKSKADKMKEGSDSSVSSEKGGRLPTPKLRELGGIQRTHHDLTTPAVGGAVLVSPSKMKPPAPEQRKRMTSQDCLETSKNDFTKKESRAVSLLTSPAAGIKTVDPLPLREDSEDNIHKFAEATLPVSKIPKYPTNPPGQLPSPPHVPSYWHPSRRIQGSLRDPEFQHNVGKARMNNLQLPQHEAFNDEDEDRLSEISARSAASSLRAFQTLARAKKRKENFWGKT
UniProt Q9NX70: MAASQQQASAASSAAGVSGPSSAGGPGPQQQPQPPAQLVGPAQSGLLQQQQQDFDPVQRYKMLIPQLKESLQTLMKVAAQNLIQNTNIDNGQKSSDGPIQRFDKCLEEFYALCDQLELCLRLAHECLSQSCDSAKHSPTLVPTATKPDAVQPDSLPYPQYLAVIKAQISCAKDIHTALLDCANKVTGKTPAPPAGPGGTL
UniProt O15151: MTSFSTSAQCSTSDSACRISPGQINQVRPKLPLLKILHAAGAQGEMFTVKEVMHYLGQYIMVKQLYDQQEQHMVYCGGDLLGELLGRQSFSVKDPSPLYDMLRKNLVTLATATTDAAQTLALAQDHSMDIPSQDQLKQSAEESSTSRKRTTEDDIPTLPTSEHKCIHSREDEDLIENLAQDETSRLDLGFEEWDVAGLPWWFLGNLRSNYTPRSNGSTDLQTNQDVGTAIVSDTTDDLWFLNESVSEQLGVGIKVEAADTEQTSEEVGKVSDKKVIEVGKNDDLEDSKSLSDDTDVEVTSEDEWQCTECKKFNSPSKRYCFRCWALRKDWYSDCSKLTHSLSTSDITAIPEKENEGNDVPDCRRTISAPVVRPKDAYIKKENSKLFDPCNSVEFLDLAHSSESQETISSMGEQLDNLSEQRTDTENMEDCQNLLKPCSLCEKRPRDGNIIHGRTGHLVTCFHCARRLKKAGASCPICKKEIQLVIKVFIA
UniProt Q96DN6: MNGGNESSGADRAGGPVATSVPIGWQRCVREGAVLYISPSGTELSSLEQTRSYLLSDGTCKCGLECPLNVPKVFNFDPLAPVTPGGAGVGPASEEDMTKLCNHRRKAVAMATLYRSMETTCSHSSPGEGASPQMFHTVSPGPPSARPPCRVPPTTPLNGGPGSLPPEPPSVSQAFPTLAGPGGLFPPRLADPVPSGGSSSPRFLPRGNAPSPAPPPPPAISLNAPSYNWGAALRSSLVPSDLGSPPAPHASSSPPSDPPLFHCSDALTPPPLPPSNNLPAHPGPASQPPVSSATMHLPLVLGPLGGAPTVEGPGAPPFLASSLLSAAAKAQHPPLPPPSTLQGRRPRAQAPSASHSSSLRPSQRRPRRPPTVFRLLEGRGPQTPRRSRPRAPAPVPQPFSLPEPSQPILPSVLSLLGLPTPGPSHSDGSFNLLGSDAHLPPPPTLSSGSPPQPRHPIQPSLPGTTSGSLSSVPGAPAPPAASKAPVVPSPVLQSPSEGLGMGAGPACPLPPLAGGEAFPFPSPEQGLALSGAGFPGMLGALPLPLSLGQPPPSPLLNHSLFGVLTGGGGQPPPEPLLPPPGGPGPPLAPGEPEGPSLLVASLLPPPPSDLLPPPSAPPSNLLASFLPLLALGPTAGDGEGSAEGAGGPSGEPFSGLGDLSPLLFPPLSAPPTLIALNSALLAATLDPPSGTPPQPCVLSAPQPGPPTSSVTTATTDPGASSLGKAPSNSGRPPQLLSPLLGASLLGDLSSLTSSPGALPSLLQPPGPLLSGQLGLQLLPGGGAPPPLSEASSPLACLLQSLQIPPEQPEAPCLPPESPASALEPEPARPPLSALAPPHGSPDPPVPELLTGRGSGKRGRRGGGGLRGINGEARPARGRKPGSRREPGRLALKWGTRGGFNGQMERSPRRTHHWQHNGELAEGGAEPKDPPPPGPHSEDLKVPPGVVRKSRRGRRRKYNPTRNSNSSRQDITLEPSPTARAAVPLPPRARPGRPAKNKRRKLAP
UniProt P50579: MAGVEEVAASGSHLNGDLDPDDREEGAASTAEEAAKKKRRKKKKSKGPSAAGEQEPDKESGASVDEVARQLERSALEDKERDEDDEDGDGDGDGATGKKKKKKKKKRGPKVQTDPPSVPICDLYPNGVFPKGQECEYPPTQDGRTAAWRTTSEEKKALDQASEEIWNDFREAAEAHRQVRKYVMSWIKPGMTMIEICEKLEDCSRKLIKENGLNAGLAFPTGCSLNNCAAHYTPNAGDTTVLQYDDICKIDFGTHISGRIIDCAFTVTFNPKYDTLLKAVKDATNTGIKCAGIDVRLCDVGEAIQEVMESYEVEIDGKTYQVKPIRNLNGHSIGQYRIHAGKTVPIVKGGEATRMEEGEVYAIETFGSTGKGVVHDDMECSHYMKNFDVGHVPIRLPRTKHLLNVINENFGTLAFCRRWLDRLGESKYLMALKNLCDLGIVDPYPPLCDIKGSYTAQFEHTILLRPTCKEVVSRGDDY
UniProt A6NJ78: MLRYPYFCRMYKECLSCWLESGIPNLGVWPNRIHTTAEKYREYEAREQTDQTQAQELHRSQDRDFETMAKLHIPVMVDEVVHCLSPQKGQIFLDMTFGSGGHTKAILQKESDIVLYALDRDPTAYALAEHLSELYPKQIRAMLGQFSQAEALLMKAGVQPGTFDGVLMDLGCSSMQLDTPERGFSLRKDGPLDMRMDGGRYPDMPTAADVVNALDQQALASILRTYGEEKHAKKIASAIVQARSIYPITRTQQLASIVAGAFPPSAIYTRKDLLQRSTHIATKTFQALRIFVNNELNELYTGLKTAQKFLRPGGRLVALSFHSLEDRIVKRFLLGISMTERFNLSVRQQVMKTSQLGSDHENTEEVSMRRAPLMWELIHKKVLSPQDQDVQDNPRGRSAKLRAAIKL
UniProt P55083: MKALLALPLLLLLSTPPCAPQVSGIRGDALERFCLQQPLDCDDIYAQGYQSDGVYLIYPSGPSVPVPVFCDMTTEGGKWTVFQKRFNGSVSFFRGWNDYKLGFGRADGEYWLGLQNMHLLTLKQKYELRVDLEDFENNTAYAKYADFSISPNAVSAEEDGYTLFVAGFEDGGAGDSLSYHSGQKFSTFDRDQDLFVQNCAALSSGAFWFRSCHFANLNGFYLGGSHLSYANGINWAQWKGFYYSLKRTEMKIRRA
UniProt Q05BQ5, whole entry, looked up: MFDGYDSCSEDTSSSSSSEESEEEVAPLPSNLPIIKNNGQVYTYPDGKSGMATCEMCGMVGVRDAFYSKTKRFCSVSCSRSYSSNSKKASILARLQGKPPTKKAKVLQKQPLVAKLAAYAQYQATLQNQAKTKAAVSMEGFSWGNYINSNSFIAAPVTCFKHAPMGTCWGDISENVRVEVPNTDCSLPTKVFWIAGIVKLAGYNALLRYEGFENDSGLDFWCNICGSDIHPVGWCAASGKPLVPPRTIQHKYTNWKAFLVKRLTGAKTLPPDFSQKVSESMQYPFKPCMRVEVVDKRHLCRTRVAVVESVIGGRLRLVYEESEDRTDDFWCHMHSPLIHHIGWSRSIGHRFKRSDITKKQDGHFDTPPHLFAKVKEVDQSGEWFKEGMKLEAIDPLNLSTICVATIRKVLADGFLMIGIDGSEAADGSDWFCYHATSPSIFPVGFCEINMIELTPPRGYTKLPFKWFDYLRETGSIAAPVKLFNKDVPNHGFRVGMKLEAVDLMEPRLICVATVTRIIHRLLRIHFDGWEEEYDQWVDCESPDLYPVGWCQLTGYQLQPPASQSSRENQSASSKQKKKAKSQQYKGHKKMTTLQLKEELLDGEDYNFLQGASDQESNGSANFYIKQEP

Experiments:
Test in all cases: log2 fold change, soluble protein after heating vs DMSO (PISA); higher = thermal stabilisation; K562 lysate, 10 uM; active = over 0.2 and 3.5 SD of the protein, either way, in both replicates (recomputed)
lapatinib = compound: CS(=O)(=O)CCNCc1ccc(-c2ccc3ncnc(Nc4ccc(OCc5cccc(F)c5)c(Cl)c4)c3c2)o1 [lapatinib]
Procedure, shortened: (§1)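 Values give the log-two fold change in thermal stability against solvent controls, from duplicates. Crude K562 extract at 1 mg/mL protein, made by dounce homogenisation in PBS pH 7.4 with 1 mM MgCl2, was treated with 10 μM compound for 30 min. After 3 min heating across 48°C-58°C, aliquots were pooled, adjusted to 0.5% NP-40 at 4°C and centrifuged at 21,000xg for 90 min. The supernatant was measured by TMTpro 16plex LC-MS/MS with channel sums equalised.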

crizotinib = compound: C[C@@H](Oc1cc(-c2cnn(C3CCNCC3)c2)cnc1N)c1c(Cl)ccc(F)c1Cl [crizotinib]
Procedure, shortened: as §1

[1] = compound: C[C@H](C1=CC=C(C=C1)C(=O)NC2=C3C=CNC3=NC=C2)N
Procedure, shortened: as §1

duvelisib = compound: C[C@H](Nc1ncnc2nc[nH]c12)c1cc2cccc(Cl)c2c(=O)n1-c1ccccc1 [duvelisib]
Procedure, shortened: as §1

gandotinib = compound: Cc1cc(Nc2cc(CN3CCOCC3)c3nc(C)c(Cc4ccc(Cl)cc4F)n3n2)n[nH]1 [gandotinib]
Procedure, shortened: as §1

doramapimod = compound: Cc1ccc(-n2nc(C(C)(C)C)cc2NC(=O)Nc2ccc(OCCN3CCOCC3)c3ccccc23)cc1 [doramapimod]
Procedure, shortened: as §1

[2] = compound: Cc1cccc(CC(=O)N2CCc3c2ccc(-c2cn(C)c4ncnc(N)c24)c3F)n1
Procedure, shortened: as §1

pictilisib = compound: CS(=O)(=O)N1CCN(Cc2cc3nc(-c4cccc5[nH]ncc45)nc(N4CCOCC4)c3s2)CC1 [pictilisib]
Procedure, shortened: as §1

tozasertib = compound: Cc1cc(Nc2cc(N3CCN(C)CC3)nc(Sc3ccc(NC(=O)C4CC4)cc3)n2)n[nH]1 [tozasertib]
Procedure, shortened: as §1

bafetinib = compound: Cc1ccc(NC(=O)c2ccc(CN3CC[C@H](N(C)C)C3)c(C(F)(F)F)c2)cc1Nc1nccc(-c2cncnc2)n1 [bafetinib]
Procedure, shortened: as §1

Target | log2 fold change (lapatinib) | log2 fold change (crizotinib) | log2 fold change [1] | log2 fold change (duvelisib) | log2 fold change (gandotinib) | log2 fold change (doramapimod) | log2 fold change [2] | log2 fold change (pictilisib) | log2 fold change (tozasertib) | log2 fold change (bafetinib)
MED9 (UniProt Q9NWA0) | inactive: -0.103 | inactive: 0.188 | inactive: 0.049 | inactive: 0.066 | inactive: -0.092 | inactive: -0.093 | inactive: -0.113 |  |  | 
MED28 (UniProt Q9H204) | inactive: 0.132 | inactive: 0.021 | inactive: -0.039 | inactive: -0.034 | active: 0.394 | inactive: -0.012 | inactive: -0.038 |  |  | 
MEGF9 (UniProt Q9H1U4) |  |  | inactive: 0.181 | inactive: -0.094 | inactive: -0.051 |  | inactive: -0.093 | inactive: 0.04 | inactive: -0.235 | inactive: 0.083
MBTPS1 (UniProt Q14703) |  | inactive: -0.008 | inactive: 0.114 | inactive: -0.006 | inactive: -0.164 | inactive: 0.01 | inactive: -0.15 | inactive: 0.012 | inactive: -0.009 | inactive: -0.001
MED11 (UniProt Q9P086) |  | inactive: -0.019 |  | inactive: -0.256 |  | inactive: 0.008 |  | inactive: -0.06 |  | inactive: -0.203
MEF2C isoform 2 (UniProt Q06413) | inactive: -0.09 | inactive: -0.01 | inactive: 0.158 | inactive: -0.123 | inactive: -0.065 | inactive: 0.07 | inactive: -0.021 |  | inactive: 0.087 | 
MATK isoform 2 (UniProt P42679) | inactive: 0.025 |  | inactive: -0.224 |  | inactive: 0.056 |  | inactive: 0.07 |  |  | 
MCEMP1 (UniProt Q8IX19) | inactive: -0.185 | inactive: 0.166 |  | inactive: -0.038 |  | inactive: 0.052 |  |  |  | 
MEGF8 (UniProt Q7Z7M0) |  | inactive: 0.113 | inactive: -0.077 | inactive: -0.167 | inactive: -0.101 | inactive: -0.028 | inactive: -0.011 | inactive: -0.015 | inactive: 0.02 | inactive: 0.068
MFSD6 (UniProt Q6ZSS7) |  |  | inactive: -0.235 | inactive: 0.14 | inactive: 0.032 |  | inactive: -0.263 | inactive: -0.067 | inactive: 0.2 | inactive: 0.031
MFSD14B (UniProt Q5SR56) |  | inactive: -0.201 | inactive: 0.004 |  | inactive: 0.016 | inactive: 0.016 | inactive: 0.052 |  | inactive: -0.01 | 
MDM2 isoform 11 (UniProt Q00987) |  | inactive: 0.014 | inactive: -0.004 |  | inactive: 0.044 | inactive: 0.009 | inactive: -0.158 | inactive: -0.003 |  | inactive: 0.054
MCTS2P, A0A3B3IRV3 | inactive: 0.203 | inactive: 0.027 |  | inactive: -0.132 |  | inactive: -0.011 |  |  |  | 
MDK (UniProt P21741) | inactive: -0.015 | inactive: 0.231 | inactive: 0.245 | inactive: 0.036 | inactive: -0.179 | inactive: -0.108 | inactive: -0.218 |  | inactive: 0.043 | 
MEIOB isoform 2 (UniProt Q8N635) |  |  | inactive: 0.112 | inactive: 0.19 | inactive: -0.045 |  | inactive: 0.012 |  |  | 
MELTF (UniProt P08582) |  | inactive: -0.015 | inactive: -0.096 |  | inactive: -0.083 | inactive: 0.154 | inactive: -0.079 | inactive: -0.037 | inactive: -0.118 | inactive: 0.052
MBTPS2 (UniProt O43462) |  | inactive: 0.03 |  |  |  | inactive: 0.033 |  |  | inactive: -0.101 | 
MFSD12 isoform 3 (UniProt Q6NUT3) | inactive: 0.033 | inactive: -0.023 | inactive: -0.238 | inactive: 0.092 | inactive: 0.076 | inactive: 0.053 | inactive: 0.352 |  |  | 
MFAP3 (UniProt P55082) |  | inactive: 0.079 | inactive: -0.005 | inactive: 0.171 | inactive: 0.087 | inactive: 0.114 | inactive: 0.081 |  |  | 

Target | log2 fold change (lapatinib) | log2 fold change (crizotinib) | log2 fold change [1] | log2 fold change (duvelisib) | log2 fold change (gandotinib) | log2 fold change (doramapimod) | log2 fold change [2] | log2 fold change (pictilisib) | log2 fold change (tozasertib) | log2 fold change (bafetinib)
MEX3A (UniProt A1L020) |  |  |  | inactive: 0.196 |  |  |  |  |  | 
MDM1 (UniProt Q8TC05) | inactive: -0.004 |  | active: -1.42 | inactive: 0.05 | inactive: 0.336 |  | active: 0.554 |  | inactive: 0.083 | 
METTL17 isoform 3 (UniProt Q9H7H0) |  |  | inactive: 0.096 |  | inactive: 0.13 |  | inactive: -0.007 |  | inactive: 0.263 | 
MED29 (UniProt Q9NX70) |  | inactive: 0.012 | inactive: 0.188 | inactive: 0.414 | inactive: -0.067 | inactive: -0.075 | inactive: -0.109 |  |  | 
MDM4 (UniProt O15151) |  | inactive: -0.004 | inactive: 0.013 | inactive: 0.107 | inactive: 0.051 | inactive: 0.013 | inactive: 0.004 |  | inactive: 0.074 | 
MBD6 (UniProt Q96DN6) |  |  |  | inactive: 0.065 |  |  |  |  |  | 
METAP2 isoform 2 (UniProt P50579) |  |  | inactive: -0.091 |  | inactive: 0.099 |  | inactive: 0.055 |  | inactive: 0.049 | 
MBLAC1 (UniProt A4D2B0) | inactive: 0.013 |  | inactive: 0.027 |  | inactive: 0.118 |  | inactive: -0.021 |  | inactive: 0.122 | 
METTL23 (UniProt Q86XA0) | inactive: -0.188 |  |  |  |  |  |  |  | inactive: -0.156 | 
MBNL2 (UniProt Q5VZF2) | inactive: -0.033 | inactive: 0.024 | inactive: -0.076 |  | inactive: 0.044 | inactive: 0.045 | inactive: -0.238 |  | inactive: -0.098 | 
MEN1 (UniProt O00255) | inactive: -0.226 | inactive: -0.051 |  | inactive: -0.009 |  | inactive: 0.051 |  |  | inactive: 0.008 | 
METTL15 (UniProt A6NJ78) |  | inactive: -0.007 |  |  |  | inactive: -0.088 |  |  |  | 
MEIS1 (UniProt O00470) |  | inactive: -0.006 | inactive: 0.151 |  | inactive: 0.082 | inactive: -0.099 | inactive: -0.177 | inactive: 0.141 | inactive: -0.12 | inactive: 0
MFAP4 isoform 2 (UniProt P55083) |  |  |  |  |  |  |  |  | inactive: 0.066 | 
MFSD9 (UniProt Q8NBP5) |  |  |  | inactive: -0.006 |  |  |  |  |  | 
MBTD1 (UniProt Q05BQ5) |  | inactive: -0.131 |  |  |  | inactive: 0.128 |  |  |  | 
MEX3C (UniProt Q5U5Q3) |  | inactive: -0.056 |  |  |  | inactive: -0.008 |  |  |  | 
MELK (UniProt Q14680) | inactive: -0.031 | inactive: 0.044 | inactive: 0.01 | inactive: -0.028 | inactive: -0.031 | inactive: 0.208 | inactive: 0.039 |  | inactive: -0.209 | 
MCRS1 isoform 2 (UniProt Q96EZ8) |  |  | inactive: -0.009 |  | inactive: -0.083 |  | inactive: -0.131 | inactive: -0.079 |  | inactive: -0.106

7 entries from above, tab-delimited:
Target	log2 fold change (lapatinib)	log2 fold change (crizotinib)	log2 fold change [1]	log2 fold change (duvelisib)	log2 fold change (gandotinib)	log2 fold change (doramapimod)	log2 fold change [2]	log2 fold change (pictilisib)	log2 fold change (tozasertib)	log2 fold change (bafetinib)
METTL17 isoform 3 (UniProt Q9H7H0)			inactive: 0.096		inactive: 0.13		inactive: -0.007		inactive: 0.263	
MDM4 (UniProt O15151)		inactive: -0.004	inactive: 0.013	inactive: 0.107	inactive: 0.051	inactive: 0.013	inactive: 0.004		inactive: 0.074	
MBNL2 (UniProt Q5VZF2)	inactive: -0.033	inactive: 0.024	inactive: -0.076		inactive: 0.044	inactive: 0.045	inactive: -0.238		inactive: -0.098	
MEN1 (UniProt O00255)	inactive: -0.226	inactive: -0.051		inactive: -0.009		inactive: 0.051			inactive: 0.008	
METTL15 (UniProt A6NJ78)		inactive: -0.007				inactive: -0.088				
MFSD9 (UniProt Q8NBP5)				inactive: -0.006						
MEX3C (UniProt Q5U5Q3)		inactive: -0.056				inactive: -0.008				
